Data published in paper PMC10690479.
No constants are given. Whether binding was seen depends on the method and setting. Binding seen in cells or lysates may run through a third protein. Some results given as binding are weak or reduced against the parent protein; the word gives no strength.

The chains behind the UniProt entries cited, without tags or fusion partners.
UniProt Q9P2D3: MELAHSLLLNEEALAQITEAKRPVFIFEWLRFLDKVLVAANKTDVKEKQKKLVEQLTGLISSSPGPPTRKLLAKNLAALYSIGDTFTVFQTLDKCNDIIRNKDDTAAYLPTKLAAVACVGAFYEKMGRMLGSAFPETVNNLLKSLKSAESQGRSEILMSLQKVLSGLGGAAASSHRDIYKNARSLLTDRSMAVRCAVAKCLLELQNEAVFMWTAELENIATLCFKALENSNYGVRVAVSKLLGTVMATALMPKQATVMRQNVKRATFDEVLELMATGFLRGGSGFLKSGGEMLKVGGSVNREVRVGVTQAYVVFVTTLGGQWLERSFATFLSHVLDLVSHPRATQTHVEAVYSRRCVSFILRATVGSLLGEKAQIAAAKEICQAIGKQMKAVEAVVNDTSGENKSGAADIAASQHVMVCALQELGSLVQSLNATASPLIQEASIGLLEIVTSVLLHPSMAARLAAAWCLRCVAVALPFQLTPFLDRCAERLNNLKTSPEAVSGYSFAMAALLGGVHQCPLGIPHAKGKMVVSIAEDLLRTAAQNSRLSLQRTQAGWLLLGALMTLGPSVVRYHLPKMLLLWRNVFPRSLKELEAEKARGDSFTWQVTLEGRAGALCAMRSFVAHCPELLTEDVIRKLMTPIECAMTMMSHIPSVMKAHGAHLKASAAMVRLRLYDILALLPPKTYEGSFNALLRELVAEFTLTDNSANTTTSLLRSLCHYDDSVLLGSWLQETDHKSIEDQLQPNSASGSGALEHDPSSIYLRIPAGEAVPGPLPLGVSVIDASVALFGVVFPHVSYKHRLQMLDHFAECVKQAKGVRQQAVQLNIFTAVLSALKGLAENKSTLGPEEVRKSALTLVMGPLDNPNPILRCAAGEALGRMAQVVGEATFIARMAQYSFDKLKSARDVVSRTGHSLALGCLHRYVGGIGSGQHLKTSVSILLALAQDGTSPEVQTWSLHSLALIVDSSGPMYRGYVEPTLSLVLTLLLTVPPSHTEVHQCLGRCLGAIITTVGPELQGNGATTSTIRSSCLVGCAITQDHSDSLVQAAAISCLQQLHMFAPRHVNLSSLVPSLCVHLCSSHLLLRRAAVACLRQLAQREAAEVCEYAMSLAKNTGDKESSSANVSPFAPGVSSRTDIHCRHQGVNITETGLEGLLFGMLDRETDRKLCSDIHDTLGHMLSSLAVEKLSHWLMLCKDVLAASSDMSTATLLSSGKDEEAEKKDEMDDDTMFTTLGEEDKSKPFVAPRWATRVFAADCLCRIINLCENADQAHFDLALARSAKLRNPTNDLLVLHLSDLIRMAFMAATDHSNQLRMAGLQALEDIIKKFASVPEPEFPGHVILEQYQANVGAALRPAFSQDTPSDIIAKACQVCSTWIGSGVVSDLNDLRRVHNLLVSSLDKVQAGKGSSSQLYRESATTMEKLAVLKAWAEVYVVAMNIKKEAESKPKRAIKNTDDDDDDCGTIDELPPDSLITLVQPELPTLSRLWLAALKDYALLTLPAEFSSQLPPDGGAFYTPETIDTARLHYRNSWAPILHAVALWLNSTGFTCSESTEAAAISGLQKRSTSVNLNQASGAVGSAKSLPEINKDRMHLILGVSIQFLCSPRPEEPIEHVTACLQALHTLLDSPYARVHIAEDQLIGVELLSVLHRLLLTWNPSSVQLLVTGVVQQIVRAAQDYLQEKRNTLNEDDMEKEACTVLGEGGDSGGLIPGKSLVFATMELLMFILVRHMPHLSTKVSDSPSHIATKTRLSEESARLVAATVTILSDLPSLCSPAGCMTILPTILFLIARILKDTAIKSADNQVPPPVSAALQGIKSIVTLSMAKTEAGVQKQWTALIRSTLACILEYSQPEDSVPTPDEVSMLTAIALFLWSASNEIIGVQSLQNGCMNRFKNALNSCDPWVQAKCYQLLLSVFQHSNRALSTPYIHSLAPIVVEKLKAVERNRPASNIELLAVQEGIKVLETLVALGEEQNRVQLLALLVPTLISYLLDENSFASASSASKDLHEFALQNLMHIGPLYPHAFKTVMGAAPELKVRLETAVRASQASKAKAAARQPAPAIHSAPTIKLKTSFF
UniProt Q14203: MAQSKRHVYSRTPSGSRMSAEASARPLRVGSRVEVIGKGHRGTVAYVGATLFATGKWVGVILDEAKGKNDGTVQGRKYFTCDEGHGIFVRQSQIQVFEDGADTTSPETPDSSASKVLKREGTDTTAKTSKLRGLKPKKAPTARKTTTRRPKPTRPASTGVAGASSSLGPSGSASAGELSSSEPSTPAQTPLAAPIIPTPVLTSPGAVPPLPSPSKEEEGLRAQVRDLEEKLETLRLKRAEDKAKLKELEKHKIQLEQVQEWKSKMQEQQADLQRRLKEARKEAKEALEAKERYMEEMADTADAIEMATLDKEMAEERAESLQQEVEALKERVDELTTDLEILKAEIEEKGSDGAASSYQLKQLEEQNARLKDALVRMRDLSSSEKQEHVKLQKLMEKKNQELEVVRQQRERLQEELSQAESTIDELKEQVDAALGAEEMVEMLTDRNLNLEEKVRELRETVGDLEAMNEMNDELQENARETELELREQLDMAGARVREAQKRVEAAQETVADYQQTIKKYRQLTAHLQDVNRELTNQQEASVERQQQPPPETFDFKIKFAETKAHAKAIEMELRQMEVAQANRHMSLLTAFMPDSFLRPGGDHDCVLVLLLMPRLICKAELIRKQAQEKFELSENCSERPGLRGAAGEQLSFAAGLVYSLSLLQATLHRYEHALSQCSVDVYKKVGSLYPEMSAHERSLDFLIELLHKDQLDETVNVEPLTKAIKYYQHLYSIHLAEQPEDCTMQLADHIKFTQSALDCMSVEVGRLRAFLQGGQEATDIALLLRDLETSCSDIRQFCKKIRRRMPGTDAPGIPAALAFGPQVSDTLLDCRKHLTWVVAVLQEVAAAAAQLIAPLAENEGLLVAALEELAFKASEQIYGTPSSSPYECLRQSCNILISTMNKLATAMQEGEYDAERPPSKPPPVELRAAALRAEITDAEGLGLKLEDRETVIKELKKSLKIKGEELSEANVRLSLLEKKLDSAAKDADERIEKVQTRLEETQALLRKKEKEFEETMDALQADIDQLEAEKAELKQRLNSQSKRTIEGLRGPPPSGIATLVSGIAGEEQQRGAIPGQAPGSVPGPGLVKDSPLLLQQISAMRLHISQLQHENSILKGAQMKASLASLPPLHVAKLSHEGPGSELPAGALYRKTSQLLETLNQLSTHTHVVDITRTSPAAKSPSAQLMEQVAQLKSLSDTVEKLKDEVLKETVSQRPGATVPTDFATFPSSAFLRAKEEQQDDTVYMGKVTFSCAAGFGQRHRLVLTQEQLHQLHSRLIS

B1: Aftiphilin, endogenous in HEK293 cells (protein, UniProt Q6ULP2 1-936)
chain: MEPDIIRMYSSSPPPLDNGAEDDDDDEFGEFGGFSEVSPSGVGFVDFDTPDYTRPKEEFVPSNHFMPIHEFSENVDSLTSFKSIKNGNDKDITAELSAPVKGQSDVLLSTTSKEIISSEMLATSIDGMERPGNLNKVVEQRQNVGTLESFSPGDFRTNMNVVHQNKQLESCNGEKPPCLEILTNGFAVLETVNPQGTDDLDNVADSKGRKPLSTHSTEYNLDSVPSPAEEFADFATFSKKERIQLEEIECAVLNDREALTIRENNKINRVNELNSVKEVALGRSLDNKGDTDGEDQVCVSEISIVTNRGFSVEKQGLPTLQQDEFLQSGVQSKAWSLVDSADNSEAIRREQCKTEEKLDLLTSKCAHLCMDSVKTSDDEVGSPKEESRKFTNFQSPNIDPTEENDLDDSLSVKNGDSSNDFVTCNDINEDDFGDFGDFGSASGSTPPFVTGTQDSMSDATFEESSEHFPHFSEPGDDFGEFGDINAVSCQEETILTKSDLKQTSDNLSEECQLARKSSGTGTEPVAKLKNGQEGEIGHFDSVPNIQDDCNGFQDSDDFADFSSAGPSQVVDWNAFEDEQKDSCSWAAFGDQQATESHHRKEAWQSHRTDENIDTPGTPKTHSVPSATSKGAVASGHLQESATSVQTALLNRLERIFEACFPSILVPDAEEEVTSLKHLLETSTLPIKTREALPESGELLDVWTELQDIHDAHGLRYQWGGSHSNKKLLSSLGIDTRNILFTGNKKQPVIVPMYAAGLGMLEPTKEPLKPLSAAEKIASIGQTATMSPDMNTCTSDQFQESLPPVQFDWSSSGLTNPLDASGGSTLLNLDFFGPVDDSSSSSSTTIPGVDPELYELTTSKLEISTSSLKVTDAFARLMSTVEKTSTSTRKPKREEHLSEEAIKVIAGLPDLTFMHAKVLMFPATLTPSTSSQEKADG
B2: γ-synergin, endogenous in HEK293 cells (protein, UniProt Q9UMZ2 1-1314)
chain: MALRPGAGSGGGGAAGAGAGSAGGGGFMFPVAGGIRPPQAGLMPMQQQGFPMVSVMQPNMQGIMGMNYSSQMSQGPIAMQAGIPMGPMPAAGMPYLGQAPFLGMRPPGPQYTPDMQKQFAEEQQKRFEQQQKLLEEERKRRQFEEQKQKLRLLSSVKPKTGEKSRDDALEAIKGNLDGFSRDAKMHPTPASHPKKPGPSLEEKFLVSCDISTSGQEQIKLNTSEVGHKALGPGSSKKYPSLMASNGVAVDGCVSGTTTAEAENTSDQNLSIEESGVGVFPSQDPAQPRMPPWIYNESLVPDAYKKILETTMTPTGIDTAKLYPILMSSGLPRETLGQIWALANRTTPGKLTKEELYTVLAMIAVTQRGVPAMSPDALNQFPAAPIPTLSGFSMTLPTPVSQPTVIPSGPAGSMPLSLGQPVMGINLVGPVGGAAAQASSGFIPTYPANQVVKPEEDDFQDFQDASKSGSLDDSFSDFQELPASSKTSNSQHGNSAPSLLMPLPGTKALPSMDKYAVFKGIAADKSSENTVPPGDPGDKYSAFRELEQTAENKPLGESFAEFRSAGTDDGFTDFKTADSVSPLEPPTKDKTFPPSFPSGTIQQKQQTQVKNPLNLADLDMFSSVNCSSEKPLSFSAVFSTSKSVSTPQSTGSAATMTALAATKTSSLADDFGEFSLFGEYSGLAPVGEQDDFADFMAFSNSSISSEQKPDDKYDALKEEASPVPLTSNVGSTVKGGQNSTAASTKYDVFRQLSLEGSGLGVEDLKDNTPSGKSDDDFADFHSSKFSSINSDKSLGEKAVAFRHTKEDSASVKSLDLPSIGGSSVGKEDSEDALSVQFDMKLADVGGDLKHVMSDSSLDLPTVSGQHPPAADIEDLKYAAFGSYSSNFAVSTLTSYDWSDRDDATQGRKLSPFVLSAGSGSPSATSILQKKETSFGSSENITMTSLSKVTTFVSEDALPETTFPALASFKDTIPQTSEQKEYENRDYKDFTKQDLPTAERSQEATCPSPASSGASQETPNECSDDFGEFQSEKPKISKFDFLVATSQSKMKSSEEMIKSELATFDLSVQGSHKRSLSLGDKEISRSSPSPALEQPFRDRSNTLNEKPALPVIRDKYKDLTGEVEENERYAYEWQRCLGSALNVIKKANDTLNGISSSSVCTEVIQSAQGMEYLLGVVEVYRVTKRVELGIKATAVCSEKLQQLLKDIDKVWNNLIGFMSLATLTPDENSLDFSSCMLRPGIKNAQELACGVCLLNVDSRSRKEEKPAEEHPKKAFNSETDSFKLAYGGHQYHASCANFWINCVEPKPPGLVLPDLL

Each molecule was assayed against GFP-tagged human HEATR5B, stably expressed in HEK293 Flp-In cells (human) (UniProt Q9P2D3) (assay: co-IP; GFP-Trap magnetic beads, lysates of HEK293 Flp-In T-REx cells expressing GFP-HEATR5B or GFP, 4 h at 4°C, washed in Citomix buffer; immunoblots).

binding, binds:
DYNC1H1 (dynein heavy chain), endogenous in HEK293 cells (from UniProt Q14204 1-4646)
DCTN1 (dynactin subunit), endogenous in HEK293 cells (from UniProt Q14203 1-1278)
B1
B2
